From paper PMC7666158

Protein sequences, listed by entry. Tags and fused reporters are not part of them. Lines headed by an entry give the natural chain unless they say otherwise; changes in a name come on top.
UniProt P45983: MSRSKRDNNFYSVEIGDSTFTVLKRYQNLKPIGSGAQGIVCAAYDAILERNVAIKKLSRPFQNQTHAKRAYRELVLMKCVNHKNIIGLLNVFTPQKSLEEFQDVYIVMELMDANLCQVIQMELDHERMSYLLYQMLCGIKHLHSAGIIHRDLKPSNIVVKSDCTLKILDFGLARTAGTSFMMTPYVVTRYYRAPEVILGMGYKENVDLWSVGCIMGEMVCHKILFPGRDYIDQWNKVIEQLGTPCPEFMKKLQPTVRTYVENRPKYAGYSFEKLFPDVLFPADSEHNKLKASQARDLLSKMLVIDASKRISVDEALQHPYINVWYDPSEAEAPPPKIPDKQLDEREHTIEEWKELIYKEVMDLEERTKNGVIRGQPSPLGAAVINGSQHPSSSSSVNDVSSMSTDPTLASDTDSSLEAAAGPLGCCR

Target: JNK1-dc20 (JNK1 with the C-terminal 20 residues truncated) (human) (UniProt P45983)
Test: fluorescence polarisation; competitive: 50 nM CF-evJIP with JNK1 at ~60–80% complex, titrated with unlabeled competitor; 20 mM Tris pH 8.0, 100 mM NaCl, 0.05% Brij35P, 2 mM TCEP; 384-well plates; both purified

In the case of PPRRPKRPTSLDLPSTPSL (carboxyfluorescein (CF) on the N-terminus) [CF-evJIP], the binding is reported as “binds”.

No constants are given. Whether binding was seen depends on the method and setting. Binding can be weak; no strength is given.
